The values that follow come from paper PMC4848758.

By UniProt entry, the sequences of proteins in these tests, tags left out.
UniProt Q92609: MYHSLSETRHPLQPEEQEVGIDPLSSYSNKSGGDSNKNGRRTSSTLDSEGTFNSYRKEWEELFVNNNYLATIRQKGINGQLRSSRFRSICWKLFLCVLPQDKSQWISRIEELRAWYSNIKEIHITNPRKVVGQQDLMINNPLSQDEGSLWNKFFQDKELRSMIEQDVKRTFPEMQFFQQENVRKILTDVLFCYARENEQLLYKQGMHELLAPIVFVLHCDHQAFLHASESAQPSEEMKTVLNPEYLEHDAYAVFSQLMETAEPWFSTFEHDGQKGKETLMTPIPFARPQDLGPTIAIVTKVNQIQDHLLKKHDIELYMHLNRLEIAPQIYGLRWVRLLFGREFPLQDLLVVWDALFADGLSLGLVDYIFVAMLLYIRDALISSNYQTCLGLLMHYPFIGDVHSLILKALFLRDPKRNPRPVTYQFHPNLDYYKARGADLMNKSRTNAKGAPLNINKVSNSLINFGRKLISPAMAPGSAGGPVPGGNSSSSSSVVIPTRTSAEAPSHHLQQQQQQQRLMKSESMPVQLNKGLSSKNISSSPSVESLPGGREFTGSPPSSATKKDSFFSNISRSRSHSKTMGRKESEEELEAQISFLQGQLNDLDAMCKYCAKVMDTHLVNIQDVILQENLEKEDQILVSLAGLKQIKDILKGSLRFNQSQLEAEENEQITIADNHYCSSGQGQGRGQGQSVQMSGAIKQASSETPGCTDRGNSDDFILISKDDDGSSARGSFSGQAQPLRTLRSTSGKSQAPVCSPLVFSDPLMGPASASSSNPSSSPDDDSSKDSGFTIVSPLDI

No constants are given. Whether binding was seen depends on the method and setting. Some binding calls cover weakened binding; strength is not graded here.

For this assay, the target named is T1, Atg8 (S. cerevisiae) (UniProt P38182).
T1 sequence: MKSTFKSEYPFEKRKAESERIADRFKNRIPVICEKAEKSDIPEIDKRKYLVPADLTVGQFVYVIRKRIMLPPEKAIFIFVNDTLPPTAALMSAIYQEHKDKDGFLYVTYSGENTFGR
Put plainly: two-hybrid; Systematic YHII-1 map: 7,240 human proteins from pDEST-AD against 3,778 yeast proteins from pDEST-DB; single-pass Y2H screen, then pairwise tests four independent times, retained only if positive all four times; confirmed by Sanger end-sequencing.

TBC1D5 (from UniProt Q92609 1-795): the binding result is on record as “binds”.

B1: MLX (protein, UniProt Q9UH92 1-298)
chain: MTEPGASPEDPWVKASPVGAHAGEGRAGRARARRGAGRRGASLLSPKSPTLSVPRGCREDSSHPACAKVEYAYSDNSLDPGLFVESTRKGSVVSRANSIGSTSASSVPNTDDEDSDYHQEAYKESYKDRRRRAHTQAEQKRRDAIKRGYDDLQTIVPTCQQQDFSIGSQKLSKAIVLQKTIDYIQFLHKEKKKQEEEVSTLRKDVTALKIMKVNYEQIVKAHQDNPHEGEDQVSDQVKFNVFQGIMDSLFQSFNASISVASFQELSACVFSWIEEHCKPQTLREIVIGVLHQLKNQLY
As for B1, the binding result was “binds”.
